The target of test [1] is T1, AIMP1/p43 expressed from a plasmid in HEK 293 cells (UniProt Q12904).
T1 sequence: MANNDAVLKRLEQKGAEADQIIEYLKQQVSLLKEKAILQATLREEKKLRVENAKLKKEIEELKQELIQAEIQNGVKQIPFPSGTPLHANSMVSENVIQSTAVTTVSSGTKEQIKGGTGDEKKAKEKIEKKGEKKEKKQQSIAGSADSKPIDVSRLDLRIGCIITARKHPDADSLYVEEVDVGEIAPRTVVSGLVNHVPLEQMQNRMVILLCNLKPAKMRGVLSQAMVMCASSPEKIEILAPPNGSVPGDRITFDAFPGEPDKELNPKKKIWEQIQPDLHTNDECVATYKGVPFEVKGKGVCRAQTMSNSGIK
The experiment in a line: co-IP; HEK 293 cells transfected with V5-grp78 and AIMP1/p43 plasmids along with 2 or 4 µg of HCV E2 plasmid (or E1, core, NS5A); immunoprecipitation with anti-AIMP1/p43 antibody.

Protein sequences, listed by entry. Tags and fused reporters are not part of them. Chains listed by the source or under a name are the forms on record and can include a tag or linker. Residues count along the entry.
V5-tagged E1 made from core-E1 (Q99IB8, residues 192-383): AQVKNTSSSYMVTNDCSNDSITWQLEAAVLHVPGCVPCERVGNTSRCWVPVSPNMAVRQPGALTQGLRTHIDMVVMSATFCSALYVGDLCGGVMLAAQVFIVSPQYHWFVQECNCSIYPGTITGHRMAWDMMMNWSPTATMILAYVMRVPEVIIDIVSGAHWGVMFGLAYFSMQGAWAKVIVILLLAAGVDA
V5-tagged HCV E2 (2a type, JFH1) (Q99IB8, residues 384-750): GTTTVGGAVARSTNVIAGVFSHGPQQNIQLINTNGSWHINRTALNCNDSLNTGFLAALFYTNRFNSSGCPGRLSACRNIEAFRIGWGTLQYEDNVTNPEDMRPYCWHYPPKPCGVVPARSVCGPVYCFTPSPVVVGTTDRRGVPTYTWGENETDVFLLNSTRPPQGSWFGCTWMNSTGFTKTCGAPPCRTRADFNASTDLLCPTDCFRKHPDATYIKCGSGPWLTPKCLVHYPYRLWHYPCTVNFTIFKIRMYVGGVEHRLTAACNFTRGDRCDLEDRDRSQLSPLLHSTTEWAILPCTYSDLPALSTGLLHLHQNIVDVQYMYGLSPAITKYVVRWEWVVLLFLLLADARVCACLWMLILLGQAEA
UniProt P11021, residues 19-654: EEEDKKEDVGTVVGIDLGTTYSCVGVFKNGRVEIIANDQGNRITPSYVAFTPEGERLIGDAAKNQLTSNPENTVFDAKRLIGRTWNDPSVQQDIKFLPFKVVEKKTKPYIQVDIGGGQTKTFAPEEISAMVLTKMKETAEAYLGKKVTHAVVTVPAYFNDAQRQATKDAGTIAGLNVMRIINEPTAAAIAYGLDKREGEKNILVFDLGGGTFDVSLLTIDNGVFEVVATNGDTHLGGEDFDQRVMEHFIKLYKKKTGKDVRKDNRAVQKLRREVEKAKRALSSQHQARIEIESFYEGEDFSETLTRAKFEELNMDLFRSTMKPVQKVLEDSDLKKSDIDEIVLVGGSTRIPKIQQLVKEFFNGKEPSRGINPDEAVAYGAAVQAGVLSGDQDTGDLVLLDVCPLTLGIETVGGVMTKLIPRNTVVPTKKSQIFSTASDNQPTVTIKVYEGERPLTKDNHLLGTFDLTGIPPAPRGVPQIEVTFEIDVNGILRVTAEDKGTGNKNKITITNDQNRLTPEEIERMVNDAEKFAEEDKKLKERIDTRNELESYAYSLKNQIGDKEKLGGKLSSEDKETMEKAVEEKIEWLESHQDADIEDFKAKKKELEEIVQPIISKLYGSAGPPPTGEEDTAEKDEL

Test [2] addresses T2, cellular AIMP1/p43 in HEK 293 cells (human (endogenous in HEK 293)) (UniProt Q12904).
T2 sequence: T1 sequence
The experiment in a line: co-IP; transfected HEK 293 cells lysed in RIPA buffer after 36 hours; 2 µg antibody, 4°C, protein G; IgG as control; western blot.

In test [3] the target is T1, AIMP1/p43 expressed from a plasmid in HEK 293 cells. The test is described as follows: proximity ligation; HEK293 cells transfected with V5-tagged E2 and AIMP1/p43 plasmids, fixed after 24 hours; Duolink in situ kit; anti-V5 and anti-AIMP1/p43 primary antibodies.
Test [4] shares this target. The experiment in a line: co-IP; transfected HEK 293 cells lysed in RIPA buffer after 36 hours; 2 µg antibody, 4°C, protein G; IgG as control; western blot. (A western blot detects proteins with antibodies after separation by electrophoresis.)

No constants are given. Whether binding was seen depends on the method and setting. In cells and extracts the contact can be indirect. Some binding calls cover weakened binding; strength is not graded here.

Regarding “HCV E2 co-expressed with grp78 and AIMP1/p43 (from UniProt Q99IB8 384-750)”, the binding result in test [1] was “binds”.

“V5-tagged E1 made from core-E1 (from UniProt Q99IB8 192-383)”: the binding result in test [2] is reported as “no binding”. For the substance “V5-tagged HCV E2 (2a type, JFH1) (from UniProt Q99IB8 384-750)”, the binding result in test [2] and in test [3] was “binds” throughout. On to “V5-tagged grp78 (from UniProt P11021 19-654)”, for which the binding entry in test [4] is “binds”.

Values taken from paper PMC4015952.
